PMC10397291, “Molecular pathway and structural mechanism of human oncochannel TRPV6 inhibition by the phytocannabinoid tetrahydrocannabivarin” (Nature Communications, 2023)
Positions count from the first letter of the chain named. Where “and” joins values, the source holds several entries; their conditions need not be identical. Identical values can stand only once. This continues a long series; more values of the same kind are listed elsewhere.

How the values were obtained:
Assay type in all cases: cell-based
wild-type human TRPV6 = molecular target: T1, wild-type human TRPV6 (Homo sapiens, UniProt Q9H1D0); test: Fura-2 AM Ca2+ uptake, HEK 293 cells expressing wild-type hTRPV6; conditions: replicates
T1 construct: Full-length wild-type or mutant human TRPV6 was expressed in HEK 293S cells as described above; expressed in transfected cells; host or cells: HEK 293S GnTI- (baculovirus/BacMam transduction)
T1 sequence (Q9H1D0 41-765 limits assumed): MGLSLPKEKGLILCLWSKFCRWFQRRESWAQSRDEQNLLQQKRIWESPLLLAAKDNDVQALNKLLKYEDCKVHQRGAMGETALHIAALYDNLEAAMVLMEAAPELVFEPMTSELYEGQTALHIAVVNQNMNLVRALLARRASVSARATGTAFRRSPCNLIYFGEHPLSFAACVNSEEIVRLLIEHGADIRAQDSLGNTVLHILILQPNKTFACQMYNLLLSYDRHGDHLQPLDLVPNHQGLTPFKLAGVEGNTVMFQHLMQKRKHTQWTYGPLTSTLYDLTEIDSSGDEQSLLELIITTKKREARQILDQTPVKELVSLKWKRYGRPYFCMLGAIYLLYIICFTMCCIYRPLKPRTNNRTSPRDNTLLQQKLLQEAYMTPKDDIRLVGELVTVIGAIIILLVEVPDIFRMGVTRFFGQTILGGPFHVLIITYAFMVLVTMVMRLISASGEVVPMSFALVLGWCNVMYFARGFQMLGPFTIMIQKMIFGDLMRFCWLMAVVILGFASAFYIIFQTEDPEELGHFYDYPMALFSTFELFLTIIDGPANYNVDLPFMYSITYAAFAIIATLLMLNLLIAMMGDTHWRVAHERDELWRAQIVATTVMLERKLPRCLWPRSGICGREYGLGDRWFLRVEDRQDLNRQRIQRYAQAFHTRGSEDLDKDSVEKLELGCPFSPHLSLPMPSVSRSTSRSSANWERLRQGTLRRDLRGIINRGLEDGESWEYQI

F493A mutant hTRPV6 = molecular target: T2, F493A mutant hTRPV6 (Homo sapiens, UniProt Q9H1D0, F533A); test: Fura-2 AM Ca2+ uptake, F493A mutant hTRPV6; conditions: replicates
T2 construct: Full-length wild-type or mutant human TRPV6 was expressed in HEK 293S cells as described above; expressed in transfected cells; host or cells: HEK 293S GnTI- (baculovirus/BacMam transduction)
T2 sequence (Q9H1D0 41-765 F533A limits assumed): T1 sequence (Q9H1D0 41-765 limits assumed) with F493A

L568Q mutant hTRPV6 = molecular target: T3, L568Q mutant hTRPV6 (Homo sapiens, UniProt Q9H1D0, L608Q); test: Fura-2 AM Ca2+ uptake, L568Q mutant hTRPV6; conditions: replicates
T3 construct: Full-length wild-type or mutant human TRPV6 was expressed in HEK 293S cells as described above; expressed in transfected cells; host or cells: HEK 293S GnTI- (baculovirus/BacMam transduction)
T3 sequence (Q9H1D0 41-765 L608Q limits assumed): T1 sequence (Q9H1D0 41-765 limits assumed) with L568Q

[1] = tested on: non-transfected HEK293 cells; test: Fura-2 AM measurements in non-transfected cells (Control, non-specific effects)

CCCc1cc(O)c2c(c1)OC(C)(C)[C@@H]1CCC(C)=C[C@@H]21 [THCV, tetrahydrocannabivarin]
change in F340/F380 evoked by 10 mM Ca2+ (wild-type human TRPV6; 1 μM THCV): 1.268 and 1.152 and 1.011 and 1.118 and 1.346 and 1.255 and 1.073 and 1.022 | change in F340/F380 evoked by 10 mM Ca2+ (wild-type human TRPV6; 3 μM THCV): 1.088 and 0.960 and 1.092 and 0.943 and 1.007 and 0.968 and 1.270 and 1.029 | change in F340/F380 evoked by 10 mM Ca2+ (wild-type human TRPV6; 10 μM THCV): 0.920 and 0.921 and 0.747 and 0.702 and 0.644 and 0.633 and 0.626 and 0.483 | change in F340/F380 evoked by 10 mM Ca2+ (wild-type human TRPV6; 30 μM THCV): 0.494 and 0.873 and 0.771 (2×) and 0.583 and 0.499 and 0.373 and 0.425 | change in F340/F380 evoked by 10 mM Ca2+ (wild-type human TRPV6; 100 μM THCV): 0.518 and 0.516 and 0.542 and 0.454 and 0.618 and 0.579 and 0.676 and 0.612 | change in F340/F380 evoked by 10 mM Ca2+ (F493A mutant hTRPV6; 1 μM THCV): 1.137 and 1.068 and 1.041 and 0.965 | change in F340/F380 evoked by 10 mM Ca2+ (F493A mutant hTRPV6; 3 μM THCV): 0.516 and 0.865 and 0.862 and 0.894 | change in F340/F380 evoked by 10 mM Ca2+ (F493A mutant hTRPV6; 10 μM THCV): 0.475 and 0.356 and 0.375 and 0.486 | change in F340/F380 evoked by 10 mM Ca2+ (F493A mutant hTRPV6; 30 μM THCV): 0.382 and 0.386 and 0.353 and 0.348 | change in F340/F380 evoked by 10 mM Ca2+ (F493A mutant hTRPV6; 100 μM THCV): 0.567 and 0.665 and 0.648 and 0.644 | change in F340/F380 evoked by 10 mM Ca2+ (L568Q mutant hTRPV6; 1 μM THCV): 1.262 and 1.194 and 1.190 and 1.061 | change in F340/F380 evoked by 10 mM Ca2+ (L568Q mutant hTRPV6; 3 μM THCV): 1.268 and 1.078 and 1.208 and 1.198 | change in F340/F380 evoked by 10 mM Ca2+ (L568Q mutant hTRPV6; 10 μM THCV): 1.100 and 1.052 and 0.968 and 0.899 | change in F340/F380 evoked by 10 mM Ca2+ (L568Q mutant hTRPV6; 30 μM THCV): 0.830 and 1.001 and 0.924 and 0.918 | change in F340/F380 evoked by 10 mM Ca2+ (L568Q mutant hTRPV6; 100 μM THCV): 0.622 and 0.538 and 0.588 and 0.590 | change in F340/F380 evoked by 10 mM Ca2+ ([1]; 1 μM THCV, non-transfected Control for F493A): 0.177 and 0.148 and 0.173 and 0.180 | change in F340/F380 evoked by 10 mM Ca2+ ([1]; 1 μM THCV, non-transfected Control for I564A): 0.142 and 0.121 and 0.188 and 0.131 | change in F340/F380 evoked by 10 mM Ca2+ ([1]; 1 μM THCV, non-transfected Control for M497A): 0.253 and 0.181 and 0.151 and 0.184 | change in F340/F380 evoked by 10 mM Ca2+ ([1]; 1 μM THCV, non-transfected Control for T567A): 0.212 and 0.210 and 0.218 and 0.248 | change in F340/F380 evoked by 10 mM Ca2+ ([1]; 3 μM THCV, non-transfected Control for F493A): 0.206 and 0.180 and 0.160 and 0.193 | change in F340/F380 evoked by 10 mM Ca2+ ([1]; 3 μM THCV, non-transfected Control for I564A): 0.120 and 0.123 and 0.142 and 0.146 | change in F340/F380 evoked by 10 mM Ca2+ ([1]; 3 μM THCV, non-transfected Control for M497A): 0.184 and 0.186 and 0.156 and 0.161 | change in F340/F380 evoked by 10 mM Ca2+ ([1]; 3 μM THCV, non-transfected Control for T567A): 0.182 and 0.253 and 0.199 and 0.236 | change in F340/F380 evoked by 10 mM Ca2+ ([1]; 10 μM THCV, non-transfected Control for F493A): 0.198 and 0.159 and 0.176 and 0.141 | change in F340/F380 evoked by 10 mM Ca2+ ([1]; 10 μM THCV, non-transfected Control for I564A): 0.116 and 0.124 and 0.114 and 0.113 | change in F340/F380 evoked by 10 mM Ca2+ ([1]; 10 μM THCV, non-transfected Control for M497A): 0.192 and 0.201 and 0.174 and 0.162 | change in F340/F380 evoked by 10 mM Ca2+ ([1]; 10 μM THCV, non-transfected Control for T567A): 0.167 and 0.205 and 0.218 and 0.162 | change in F340/F380 evoked by 10 mM Ca2+ ([1]; 30 μM THCV, non-transfected Control for F493A): 0.166 and 0.168 and 0.155 and 0.158 | change in F340/F380 evoked by 10 mM Ca2+ ([1]; 30 μM THCV, non-transfected Control for I564A): 0.119 and 0.146 and 0.122 | change in F340/F380 evoked by 10 mM Ca2+ ([1]; 30 μM THCV, non-transfected Control for M497A): 0.158 and 0.138 and 0.186 and 0.188 | change in F340/F380 evoked by 10 mM Ca2+ ([1]; 30 μM THCV, non-transfected Control for T567A): 0.196 and 0.203 and 0.177 and 0.230 | change in F340/F380 evoked by 10 mM Ca2+ ([1]; 100 μM THCV, non-transfected Control for A561W): 0.418 and 0.377 and 0.384 | change in F340/F380 evoked by 10 mM Ca2+ ([1]; 100 μM THCV, non-transfected Control for F493A): 0.445 and 0.433 and 0.368 and 0.380 | change in F340/F380 evoked by 10 mM Ca2+ ([1]; 100 μM THCV, non-transfected Control for I564A): 0.398 and 0.435 and 0.361 and 0.357 | change in F340/F380 evoked by 10 mM Ca2+ ([1]; 100 μM THCV, non-transfected Control for M497A): 0.411 and 0.568 and 0.505 and 0.392 | change in F340/F380 evoked by 10 mM Ca2+ ([1]; 100 μM THCV, non-transfected Control for T567A): 0.389 and 0.553 and 0.539 and 0.430
